Results are given in words; binding and its absence hold for the method and conditions named. In cells and extracts the contact can be indirect. Some binding calls cover weakened binding; strength is not graded here.
Key:
[1] = target: IGF2BP1 (human (endogenous in A2780, OVCAR3, SKOV3)) (UniProt Q9NZI8); test: co-IP; endogenous proteins, A2780, OVCAR3 and SKOV3 lysates, with or without RNase A; IP of CPSF6 or of IGF2BP1, IGF2BP2, IGF2BP3
[2] = target: IGF2BP2 (human (endogenous in A2780, OVCAR3, SKOV3)) (UniProt Q9Y6M1); test: as above
[3] = target: IGF2BP3 (human (endogenous in A2780, OVCAR3, SKOV3)) (UniProt O00425); test: as above
[4] = target: CPSF6 (human (endogenous in HeLa, A2780, OVCAR3, SKOV3)) (UniProt Q16630); test: as above
[5] = target: FLAG-tagged full-length (FL) recombinant human CPSF6, in OC cells (human) (UniProt Q16630); test: co-IP; FLAG-tagged CPSF6 (FL or truncated) expressed in OC cells, IP of the CPSF6 protein, blots for endogenous proteins; RNase A not added
Myc-IGF2BP1 (human) = Myc-IGF2BP1 (human) (UniProt Q9NZI8); test: co-IP; 293T cells co-transfected with Myc- and FLAG-tagged plasmids; Myc tag and FLAG tag as baits; without or with RNase A
Myc-IGF2BP2 (human) = Myc-IGF2BP2 (human) (UniProt Q9Y6M1); test: as above
Myc-IGF2BP3 (human) = Myc-IGF2BP3 (human) (UniProt O00425); test: as above
[6] = target: FLAG-CPSF6 full length (FL), in 293T cells (human) (UniProt Q16630); test: as above

The chains behind the UniProt entries cited, without tags or fusion partners.
UniProt Q9NZI8: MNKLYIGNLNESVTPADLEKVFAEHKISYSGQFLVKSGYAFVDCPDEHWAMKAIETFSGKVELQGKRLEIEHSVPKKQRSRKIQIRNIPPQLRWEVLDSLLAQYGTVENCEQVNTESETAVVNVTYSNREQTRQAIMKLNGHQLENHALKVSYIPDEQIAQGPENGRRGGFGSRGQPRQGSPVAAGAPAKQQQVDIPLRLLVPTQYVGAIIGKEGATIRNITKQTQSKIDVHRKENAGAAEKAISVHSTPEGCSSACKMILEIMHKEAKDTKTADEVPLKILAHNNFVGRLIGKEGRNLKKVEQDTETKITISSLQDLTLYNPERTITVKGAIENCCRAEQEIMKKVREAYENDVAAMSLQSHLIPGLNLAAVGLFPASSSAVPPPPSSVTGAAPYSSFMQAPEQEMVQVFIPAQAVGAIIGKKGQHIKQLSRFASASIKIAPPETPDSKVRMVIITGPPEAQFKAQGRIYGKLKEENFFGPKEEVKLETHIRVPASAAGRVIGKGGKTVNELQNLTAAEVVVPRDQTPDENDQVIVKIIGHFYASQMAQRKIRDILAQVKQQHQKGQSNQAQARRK
UniProt Q9Y6M1: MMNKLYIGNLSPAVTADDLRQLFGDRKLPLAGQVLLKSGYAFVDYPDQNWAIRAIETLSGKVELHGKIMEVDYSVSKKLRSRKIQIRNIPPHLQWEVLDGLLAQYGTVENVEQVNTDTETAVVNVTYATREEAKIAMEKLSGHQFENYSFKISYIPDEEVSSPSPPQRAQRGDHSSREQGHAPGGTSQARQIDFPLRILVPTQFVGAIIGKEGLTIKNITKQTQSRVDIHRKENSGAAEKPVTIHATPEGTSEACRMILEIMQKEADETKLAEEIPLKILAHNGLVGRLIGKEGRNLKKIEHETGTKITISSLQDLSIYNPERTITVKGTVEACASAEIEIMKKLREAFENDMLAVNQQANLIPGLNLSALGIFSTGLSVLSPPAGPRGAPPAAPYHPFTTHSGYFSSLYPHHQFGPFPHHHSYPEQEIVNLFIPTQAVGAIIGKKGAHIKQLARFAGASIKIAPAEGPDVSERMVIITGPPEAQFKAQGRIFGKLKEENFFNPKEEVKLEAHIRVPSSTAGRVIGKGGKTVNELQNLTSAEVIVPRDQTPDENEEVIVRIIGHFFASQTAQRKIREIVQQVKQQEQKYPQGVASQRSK
UniProt O00425: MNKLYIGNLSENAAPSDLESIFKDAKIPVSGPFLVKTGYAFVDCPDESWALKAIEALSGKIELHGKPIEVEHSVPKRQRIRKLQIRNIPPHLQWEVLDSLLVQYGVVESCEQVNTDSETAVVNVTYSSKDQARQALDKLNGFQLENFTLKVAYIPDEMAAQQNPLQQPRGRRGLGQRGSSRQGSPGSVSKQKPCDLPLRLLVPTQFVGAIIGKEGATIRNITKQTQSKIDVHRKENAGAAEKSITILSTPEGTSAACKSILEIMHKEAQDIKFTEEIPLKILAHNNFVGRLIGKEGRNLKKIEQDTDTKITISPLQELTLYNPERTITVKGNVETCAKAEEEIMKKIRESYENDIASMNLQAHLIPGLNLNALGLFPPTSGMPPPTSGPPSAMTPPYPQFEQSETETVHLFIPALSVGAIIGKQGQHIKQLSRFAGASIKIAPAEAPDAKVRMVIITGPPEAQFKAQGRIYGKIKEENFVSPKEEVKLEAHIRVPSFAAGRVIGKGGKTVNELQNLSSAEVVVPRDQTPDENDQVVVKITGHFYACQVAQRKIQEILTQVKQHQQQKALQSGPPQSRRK
UniProt Q16630: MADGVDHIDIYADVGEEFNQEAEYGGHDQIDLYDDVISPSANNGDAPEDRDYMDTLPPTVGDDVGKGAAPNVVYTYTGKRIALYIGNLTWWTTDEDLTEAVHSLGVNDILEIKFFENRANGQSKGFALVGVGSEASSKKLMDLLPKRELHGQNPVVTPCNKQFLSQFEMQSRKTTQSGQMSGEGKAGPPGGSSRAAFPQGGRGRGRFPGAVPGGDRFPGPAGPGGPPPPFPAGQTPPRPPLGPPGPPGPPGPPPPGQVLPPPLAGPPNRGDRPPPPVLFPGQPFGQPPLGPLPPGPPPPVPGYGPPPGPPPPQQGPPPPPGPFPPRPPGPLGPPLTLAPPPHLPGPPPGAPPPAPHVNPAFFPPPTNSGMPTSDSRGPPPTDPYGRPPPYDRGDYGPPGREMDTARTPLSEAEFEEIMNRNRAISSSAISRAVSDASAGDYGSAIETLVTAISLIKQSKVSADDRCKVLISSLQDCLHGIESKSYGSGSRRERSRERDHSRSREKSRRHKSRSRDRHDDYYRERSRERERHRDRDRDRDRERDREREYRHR

Substance | binding [4] | binding [5] | binding [6] | other results
CPSF6 (from UniProt Q16630 1-551) |  |  |  | binding [1]: binds; binding [2]: binds; binding [3]: binds
FLAG-CPSF6 full length (FL), in 293T cells (from UniProt Q16630 1-551) |  |  |  | binding (Myc-IGF2BP1 (human)): binds; binding (Myc-IGF2BP2 (human)): binds; binding (Myc-IGF2BP3 (human)): binds
Myc-IGF2BP3 (from UniProt O00425 1-579) |  |  | binds | 

Further lines, with some results ahead:

binding [4] | binding [5] | binding [6] | Substance | other results
binds | binds |  | IGF2BP2 (from UniProt Q9Y6M1 1-599) | 
binds | binds |  | IGF2BP3 (from UniProt O00425 1-579) | 
 |  | binds | Myc-IGF2BP2 (from UniProt Q9Y6M1 1-599) | 

Source: paper PMC12238680
